{"source": "PubChem BioAssay AID1259300 (Sanger Institute, 2017)", "assay": "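Kinase and colorectal-mutated gene knock-downs lowering HCT15 viability or boosting drug effects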 (primary screen)", "system": "HCT15 colorectal cancer cells", "reagents": "siRNA pool against human genes", "treatment": "anchor drug or DMSO vehicle added 24 h after seeding: BYL719 1 µM, cetuximab 5 µg/ml, trametinib 10 nM; drug doses chosen to barely affect viability alone", "read-out": "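Replicate-mean viability relative to non-targeting pool control with robust z-score for knock-down without drug; per-drug synergy scores for BYL719 (1 µM), cetuximab (5 µg/ml), trametinib (10 nM)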", "direction": "viability z-score, siRNA alone: higher = more viable cells after knock-down; viability vs non-targeting, siRNA alone: higher = more viable cells", "hit rule": "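Called active (essential) if viability z-score with knock-down alone falls below -3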", "meaning of the calls": "active = essential: knock-down alone lowers viability (z below -3); inactive = no strong viability loss with knock-down alone", "note": "Shown is one part, drawn at random, of 794 deposited reagents. 18 of them (2.3%) were called active. 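Calls rest on knock-down alone, not drug synergy; depositor treated synergy scores above 0.15 as synergistic; drug doses alone had little viability effect.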 Entries without a mark were called inactive. Viability is capped at 1. Further read-outs or replicates are left out here. No sequences are given here. Not stated in the record: the amount of reagent, the time to read-out."}
{"gene knocked down": "MKNK2", "viability z-score, siRNA alone": 0.457, "viability vs non-targeting, siRNA alone": 0.988}
{"gene knocked down": "YES1", "viability z-score, siRNA alone": 0.625, "viability vs non-targeting, siRNA alone": 1}
{"gene knocked down": "RAD21", "viability z-score, siRNA alone": -0.115, "viability vs non-targeting, siRNA alone": 0.946}
{"gene knocked down": "CAMK2B", "viability z-score, siRNA alone": 0.625, "viability vs non-targeting, siRNA alone": 1}
{"gene knocked down": "AK3", "viability z-score, siRNA alone": 0.625, "viability vs non-targeting, siRNA alone": 1}
{"gene knocked down": "MAP2K2", "viability z-score, siRNA alone": 0.625, "viability vs non-targeting, siRNA alone": 1}
{"gene knocked down": "TSSK6", "viability z-score, siRNA alone": 0.466, "viability vs non-targeting, siRNA alone": 0.988}

Ordered by “viability z-score, siRNA alone” (highest first): 2 of the entries above.
{"gene knocked down": "CAMK2B", "viability z-score, siRNA alone": 0.625, "viability vs non-targeting, siRNA alone": 1}
{"gene knocked down": "RAD21", "viability z-score, siRNA alone": -0.115, "viability vs non-targeting, siRNA alone": 0.946}

The listing continues:
{"gene knocked down": "VRK2", "viability z-score, siRNA alone": 0.347, "viability vs non-targeting, siRNA alone": 0.98}
{"gene knocked down": "TAOK3", "viability z-score, siRNA alone": 0.625, "viability vs non-targeting, siRNA alone": 1}
{"gene knocked down": "MARK1", "viability z-score, siRNA alone": -1.34, "viability vs non-targeting, siRNA alone": 0.857}
{"gene knocked down": "MYLK2", "viability z-score, siRNA alone": -1.62, "viability vs non-targeting, siRNA alone": 0.837}
{"gene knocked down": "SRP72", "viability z-score, siRNA alone": "-3.06 (active)", "viability vs non-targeting, siRNA alone": 0.732}
{"gene knocked down": "ITK", "viability z-score, siRNA alone": -0.493, "viability vs non-targeting, siRNA alone": 0.919}
{"gene knocked down": "KMT2B", "viability z-score, siRNA alone": -1.68, "viability vs non-targeting, siRNA alone": 0.832}
{"gene knocked down": "MAP4K2", "viability z-score, siRNA alone": -0.927, "viability vs non-targeting, siRNA alone": 0.887}
{"gene knocked down": "PFKFB2", "viability z-score, siRNA alone": 0.625, "viability vs non-targeting, siRNA alone": 1}
{"gene knocked down": "PLK2", "viability z-score, siRNA alone": 0.625, "viability vs non-targeting, siRNA alone": 1}
{"gene knocked down": "PFKM", "viability z-score, siRNA alone": -0.144, "viability vs non-targeting, siRNA alone": 0.944}
{"gene knocked down": "CDC42BPB", "viability z-score, siRNA alone": -0.489, "viability vs non-targeting, siRNA alone": 0.919}
